Laboratory results from the supplement of paper PMC6445147.
Single values of this data set are uncertain.

B1: human tRNA-Pro; a variant is named by its letters at N, in order (parent)
chain: GGCTCGTTGGTCTAGNGGTATGATTCTCGCTTAGGGTGCGAGAGGTCCCGGGTTCNNATCCCGGACGAGCCC

Variants of: B1
Experiment: tRNA 3' processing efficiency (processed reads / all reads, maximum-likelihood estimate) (fraction); higher = more efficient 3' processing
Conditions: HEK293T; construct: no Pol-II promoter ((-)CMV library)

| Variant | tRNA 3' processing efficiency |
| --- | --- |
| GAA G15A A20G T54A C55G A58G G63T | 0.4 |
| GAA G9A A14C T19G T59C | 0.14 |
| GAA T8A A14C G15A G18A T19A A20C A58T | 0.25 |
| GAA G18T G51A A58T | 0.73 |
| GAA A14T G15C T19G T53A A58G | 0.54 |
| TAA T8C A14G A20G A58T | 0.4 |
| CAA T8C A14T A58G | 0.25 |
| CAA G50T | 0.11 |
| GAA C39T T59C | 0.25 |
| CAA T8C T19G T59G | 0.57 |
| GAA G15C G17T T19C A58C | 0.4 |
| GAA G15A G17C A58T T59A | 0.19 |
| TAA G9A T19G C55T | 0.29 |
| GAA G9T G15A G17T T54A | 0.62 |
| CAA G15A T53A | 0.56 |
| GAA G9A A14C T19A A58C | 0.4 |
| TAA G15A A58G T59A | 0.57 |
| GAA G9T G17C G18T T53G | 0.5 |
| CAA T8C G17C A58T | 0.6 |
| TAA A14T A20T T53A T59C | 0.69 |
| GAA G9A A14C T54A | 0.33 |
| CAA A33G A58T T59G | 0.4 |
| CAA G15C A58T T59G | 0.13 |
| CAA G15C A58T T59C | 0.43 |

Single values from above:
tRNA 3' processing efficiency with GAA G15C G17T T19C A58C is entered as 0.4
tRNA 3' processing efficiency with CAA G15A T53A is entered as 0.56
tRNA 3' processing efficiency with GAA G9T G17C G18T T53G is entered as 0.5
tRNA 3' processing efficiency with GAA C39T T59C is entered as 0.25
tRNA 3' processing efficiency with CAA T8C A14T A58G is entered as 0.25
tRNA 3' processing efficiency with GAA G9T G15A G17T T54A is entered as 0.62

(cont.)

| Variant | tRNA 3' processing efficiency |
| --- | --- |
| GAA T8A A14C G15A G18C T53A A58T | 0.2 |
| GAA G9A G51A T59C | 0.29 |
| GAA A33G G38A A58G | 0.2 |
| GAA A20T G51A | 0.08 |
| TAA A14T A20C A58G T59A | 0.39 |
| AAA A14T A58T T59A | 0.57 |
| GAA G9C A14T G15A G17C A58G | 0.14 |
| GAA G9A A14T A58C T59C | 0.43 |
| CAA A14T G15C T19G | 0.36 |
| TAA G38A T59A | 0.25 |
| GAA A33G A58C | 0.2 |
| GAA A33G A58T | 0.42 |
| GAA A33G A58T T59C | 0.6 |
| GAA G9A A20C T53C T59C | 0.25 |
| AAA A14T T19G A58G | 0.32 |
| TAA A33G T59A | 0.29 |
| TAA A33G T59C | 0.2 |
| GAA G15C T19A A20T G52T T54C C55A A58T T59C | 0.25 |
| GAA T8C T19A A58T T59C | 0.62 |
| GAA T8C T19A A58T T59G | 0.2 |
| GAA G15A G17A A58G T59A | 0.5 |
| GAA G50C | 0.23 |
| CAA A14G G18A T19G A20T G29A A58T T59A | 0.4 |
| GAA A14T T19G C55T A58G | 0.23 |

| Variant | tRNA 3' processing efficiency |
| --- | --- |
| AAA T8C A14G T59A | 0.25 |
| GAA G9A G40A | 0.5 |
| GAA A20G A43T T54A | 0.5 |
| GAA A14T G18A T19C T54A | 0.62 |
| GAA G36C T59C | 0.2 |
| GAA A14T A33G A58C | 0.4 |
| GAA G17A A20T T53G A58T | 0.5 |
| GAA G17C A20G A58G T59G | 0.2 |
| GAA G9A A14T A33G | 0.2 |
| AAA A14G T19A T59G | 0.2 |
| CAA T8C G9A A20T | 0.62 |
| GAA A14T G15C G17A A58C | 0.62 |
| CAA G9A A14G T19A A58G | 0.33 |
| GAA G9T G51T | 0.25 |
| GAA G9T G51A | 0.5 |
| GAA G15C G17A G18T A20G T53A | 0.2 |
| GAA G15A A58C T59C | 0.2 |
| GAA G15A A58C T59G | 0.25 |
| GAA T8C A14C T19C A58G T59G | 0.25 |
| GAA G15A T19G A20T T59C | 0.25 |
| GAA T8C G15A T19A A20T T54G | 0.33 |
| CAA A20T T53A T59G | 0.2 |
| GAA G15A T19A A58C T59A | 0.17 |
| AAA G6A A20G A58T T59C | 0.5 |

| Variant | tRNA 3' processing efficiency |
| --- | --- |
| CAA G9T A58C T59G | 0.33 |
| TAA A20C A58C T59G | 0.17 |
| TAA G18T T19G A20T C55T | 0.57 |
| AAA T8C T59A | 0.2 |
| AAA G6A T59G G63A | 0.25 |
| GAA T8G A14G G15A A58G | 0.36 |
| TAA A14T T19G A58G | 0.33 |
| GAA G9A A14C T59C | 0.31 |
| GAA G9A A14T G15C T53A | 0.62 |
| AAA A14T T19G A58C T59G | 0.25 |
| GAA G17T T19C C55T T59G | 0.33 |
| AAA T8C A58T T59A | 0.33 |
| GAA G9A T19A A20G A58C | 0.11 |
| GAA T8C A14G A20T T59C | 0.25 |
| AAA T8C G9T T19A A58T | 0.4 |
| GAA G9T G15C A58G T59G | 0.25 |
| GAA G17T G50A A58G T59G | 0.13 |
| AAA T8C T19A T59G | 0.33 |
| CAA A14G G18C T19G T59G | 0.4 |
| GAA T8C G15C G18A C55T T59G | 0.44 |
| CAA G18C A20T T59A | 0.4 |
| TAA G18A A20C C55T | 0.14 |
| GAA A14G T19A A58G T59A | 0.25 |
| GAA G9A G15C T19C T53G | 0.4 |

| Variant | tRNA 3' processing efficiency |
| --- | --- |
| GAA G17A T19A G51C T53A | 0.6 |
| GAA T8C A14G T53A A58G T59G | 0.2 |
| GAA G15A G17C A58C | 0.33 |
| GAA T8G G9C G15A A20G A58G | 0.4 |
| GAA G9T T19A A20T A58T T59G | 0.25 |
| TAA G9A A58G T59G | 0.2 |
| GAA T8G A58G T59A | 0.25 |
| CAA T8G G15C A58C | 0.43 |
| CAA A33G C55T | 0.2 |
| GAA G15C G18A T19C A58T | 0.4 |
| GAA G51A T59G | 0.57 |
| AAA A14T T19G T59G | 0.5 |
| TAA G15C T19G T59A | 0.2 |
| GAA G9A G15A G17T T53A | 0.25 |
| GAA A14T G17T A20G A58G | 0.57 |
| GAA A14G G18C T53G A58T | 0.5 |
| CAA A14T T19G A20T A58G | 0.17 |
| CAA G15C A20T A23T T54A | 0.25 |
| GAA T8C A33G A58C | 0.62 |
| GAA G15A A20T G51A | 0.25 |
| TAA C55T A58G T59G | 0.5 |
| GAA A58G G64A | 0.4 |
| GAA T8C A14C T19A A58C | 0.4 |
| GAA T8C T19A A20G A58G | 0.4 |

| Variant | tRNA 3' processing efficiency |
| --- | --- |
| AAA A14T G50A A58G | 0.15 |
| GAA G15C T19A A20C T53A | 0.25 |
| GAA G51A A58T | 0.33 |
| GAA G9A G17T T59C | 0.4 |
| CAA T8C T19A A20C C55T T59G | 0.2 |
| CAA G15A A58G T59G | 0.29 |
| GAA G2A T53A A58G | 0.62 |
| GAA G9A G15T T53A T59G | 0.33 |
| GAA G9C A14G G17T A20T T59A | 0.13 |
| GAA G15C G34A A58T T59A | 0.25 |
| GAA A20G T53G A58G T59A | 0.25 |
| GAA G44T | 0.25 |
| GAA G9A A14T A20T T53G A58G | 0.4 |
| GAA G2A T53A | 0.25 |
| GAA A14G T53A A58G T59G | 0.11 |
| GAA A14T T19G A20T T59C | 0.33 |
| GAA T8C A33G | 0.4 |
| GAA T8A A14T G17T G18A A58T T59A | 0.4 |
| GAA G15A A33G T59G | 0.5 |
| TAA T8C G51C | 0.5 |
| GAA G15A A20T G40A | 0.4 |
| GAA G15T G17C A20C T59G | 0.33 |
| GAA T8C A14G A58C T59C | 0.6 |
| TAA A14T T54A A58G | 0.4 |

| Variant | tRNA 3' processing efficiency |
| --- | --- |
| GAA A14T T19A A58T T59C | 0.2 |
| TAA A14T A20T T53A | 0.29 |
| TAA A33G A58T | 0.6 |
| CAA C70G | 0.25 |
| TAA A14T A20G A58T | 0.4 |
| GAA T8C G9T A14T T59C | 0.2 |
| GAA T8C A20G G50A | 0.25 |
| AAA A33G A58T | 0.2 |
| GAA G17T A20T A58T C62T | 0.13 |
| CAA A33T C55T A58G | 0.2 |
| AAA G9T A20T C55T A58T | 0.2 |
| TAA A20G A58C T59G | 0.5 |
| GAA C55T G64A | 0.25 |
| TAA A20T A58C T59A | 0.18 |
| AAA A20T C55T A58G T59A | 0.4 |
| TAA A14T G15A T59C | 0.2 |
| GAA A20T T53A A58T T59C | 0.29 |
| GAA A14G G17A A20C T53A | 0.33 |
| TAA A20G G51A T59G | 0.55 |
| CAA A14T A20T T59G | 0.8 |
| AAA T8G G9T T19A A58C | 0.25 |
| TAA G15C G17C A58G T59G | 0.2 |

Variants of: B1
Experiment: tRNA 5' processing efficiency (processed reads / all reads, maximum-likelihood estimate) (fraction); higher = more efficient 5' processing
Conditions: HEK293T; construct: CMV Pol-II promoter ((+)CMV library, decapped)

| Variant | tRNA 5' processing efficiency |
| --- | --- |
| CAA G15A T53A | 0.33 |
